Patent US10538802B2 (IMMUCOR GTI DIAGNOSTICS, INC., priority 2011, dated 2020)
End groups of sequences in plain letters are not given here.

Experiment: peptide synthesis
Settings: whole synthesis

B1: … (peptide)
chain: DREKAPNLVYMVTGCPASDEIKRLPGDIQVVPIEVIGWPNAPILIQDFETLPREAPDLVLQR
modifications: FAM fluorophore and TQ2 quencher
purity (crude or final not stated): 95.5%
